This note sets out measurements from paper PMC8948190.

Protein sequences, listed by entry. Tags and fused reporters are not part of them.
UniProt P09874: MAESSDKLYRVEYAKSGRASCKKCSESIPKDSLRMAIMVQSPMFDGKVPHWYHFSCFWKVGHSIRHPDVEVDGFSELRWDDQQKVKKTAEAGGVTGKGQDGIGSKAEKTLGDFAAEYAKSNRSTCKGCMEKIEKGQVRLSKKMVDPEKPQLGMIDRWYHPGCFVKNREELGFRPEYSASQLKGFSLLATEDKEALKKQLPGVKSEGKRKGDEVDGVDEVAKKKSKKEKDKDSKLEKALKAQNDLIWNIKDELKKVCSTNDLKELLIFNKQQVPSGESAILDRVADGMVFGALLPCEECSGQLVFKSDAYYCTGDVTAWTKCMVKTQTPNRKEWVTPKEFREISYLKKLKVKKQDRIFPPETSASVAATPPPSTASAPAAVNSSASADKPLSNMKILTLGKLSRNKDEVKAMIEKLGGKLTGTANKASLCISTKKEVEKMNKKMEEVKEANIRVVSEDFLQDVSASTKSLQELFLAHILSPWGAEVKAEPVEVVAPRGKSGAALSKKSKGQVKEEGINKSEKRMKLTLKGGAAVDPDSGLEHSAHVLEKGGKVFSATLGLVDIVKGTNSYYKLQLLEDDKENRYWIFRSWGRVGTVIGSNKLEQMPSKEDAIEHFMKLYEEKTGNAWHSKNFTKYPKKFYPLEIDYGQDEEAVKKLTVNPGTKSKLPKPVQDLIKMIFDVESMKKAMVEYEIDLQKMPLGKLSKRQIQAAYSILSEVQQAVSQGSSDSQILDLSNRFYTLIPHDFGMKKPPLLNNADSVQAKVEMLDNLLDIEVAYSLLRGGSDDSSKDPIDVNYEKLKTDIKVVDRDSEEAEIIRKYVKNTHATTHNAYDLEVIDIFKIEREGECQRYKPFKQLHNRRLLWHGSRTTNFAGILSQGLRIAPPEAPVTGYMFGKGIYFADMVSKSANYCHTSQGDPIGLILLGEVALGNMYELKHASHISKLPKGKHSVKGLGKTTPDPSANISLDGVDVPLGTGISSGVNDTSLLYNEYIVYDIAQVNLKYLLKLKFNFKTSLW

The target in assay [1] is T1, Myc-HMGB3 (UniProt O15347).
T1 sequence: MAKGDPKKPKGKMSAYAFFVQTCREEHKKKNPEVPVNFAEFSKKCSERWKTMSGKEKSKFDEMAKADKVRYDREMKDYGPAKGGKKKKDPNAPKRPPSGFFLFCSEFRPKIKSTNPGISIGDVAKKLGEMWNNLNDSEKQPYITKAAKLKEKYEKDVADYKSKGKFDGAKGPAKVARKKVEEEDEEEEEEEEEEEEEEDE
Nature of the assay: co-IP; HEK293T co-transfected with pMyc-C2-HMGB3 and pEGFP-C2-PARP1 for 48 h; IP with anti-Myc or anti-GFP, protein A/G agarose, 4 °C; western blot.

The target in assay [2] is T2, GST-HMGB3 fusion protein (UniProt O15347).
T2 sequence: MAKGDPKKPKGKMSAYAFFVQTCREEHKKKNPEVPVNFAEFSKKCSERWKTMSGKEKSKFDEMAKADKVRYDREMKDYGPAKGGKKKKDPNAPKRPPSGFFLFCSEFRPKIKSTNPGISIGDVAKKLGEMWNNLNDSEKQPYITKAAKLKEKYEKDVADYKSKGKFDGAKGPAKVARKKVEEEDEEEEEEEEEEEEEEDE
Nature of the assay: pull-down; GST-HMGB3 (25 ug) or GST-tag alone on GST-tag Purification Resin incubated with lysate of UWB1.289 cells transfected with PCMV-PARP1 (flag-tag), 2 h at 4 °C; western blot; only the target purified.

Assay [3] deals with T3, High-mobility group box 3 (HMGB3), endogenous (human (endogenous in A2780, SKOV3, UWB1.289)) (UniProt O15347).
T3 sequence: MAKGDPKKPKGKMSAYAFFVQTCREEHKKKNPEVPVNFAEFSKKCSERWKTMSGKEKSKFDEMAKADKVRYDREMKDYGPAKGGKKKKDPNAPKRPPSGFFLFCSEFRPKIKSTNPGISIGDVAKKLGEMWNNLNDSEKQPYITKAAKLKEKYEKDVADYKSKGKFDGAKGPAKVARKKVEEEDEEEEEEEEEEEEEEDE
Nature of the assay: co-IP; endogenous proteins in A2780, SKOV3 and UWB1.289 lysates; IP with control IgG, anti-HMGB3 or anti-PARP1; western blot; also after 4 mM MMS for 20 min (interaction promoted).

The target of assay [4] is poly (ADP-ribose) polymerase 1 (PARP1), endogenous (human (endogenous in A2780, SKOV3, UWB1.289)) (UniProt P09874). The description is as above.
The target of assay [5] is EGFP-PARP1 (UniProt P09874). Nature of the assay: co-IP; HEK293T co-transfected with pMyc-C2-HMGB3 and pEGFP-C2-PARP1 for 48 h; IP with anti-Myc or anti-GFP, protein A/G agarose, 4 °C; western blot.

Results are given in words; binding and its absence hold for the method and conditions named. In cells and extracts the contact can be indirect. Some entries that bind do so weakly or less than the wild type. For some assays here: Tags and fused reporters may be left off the sequences shown.

Turning to EGFP-PARP1 (from UniProt P09874 1-1014), the binding entry in assay [1] was “binds”. Take “PARP1 (Flag-tag) from PCMV-PARP1 (from UniProt P09874 1-1014)”: in assay [2], the binding entry is listed as “binds”. On to “poly (ADP-ribose) polymerase 1 (PARP1), endogenous (from UniProt P09874 1-1014) (enzyme)”, for which, in assay [3], the binding entry is on record as “binds”.

B1: High-mobility group box 3 (HMGB3), endogenous (protein, UniProt O15347 1-200)
chain: MAKGDPKKPKGKMSAYAFFVQTCREEHKKKNPEVPVNFAEFSKKCSERWKTMSGKEKSKFDEMAKADKVRYDREMKDYGPAKGGKKKKDPNAPKRPPSGFFLFCSEFRPKIKSTNPGISIGDVAKKLGEMWNNLNDSEKQPYITKAAKLKEKYEKDVADYKSKGKFDGAKGPAKVARKKVEEEDEEEEEEEEEEEEEEDE
Consider B1, for which, in assay [4], the binding result is given as “binds”.

B2: Myc-HMGB3 (protein, UniProt O15347 1-200)
chain: MAKGDPKKPKGKMSAYAFFVQTCREEHKKKNPEVPVNFAEFSKKCSERWKTMSGKEKSKFDEMAKADKVRYDREMKDYGPAKGGKKKKDPNAPKRPPSGFFLFCSEFRPKIKSTNPGISIGDVAKKLGEMWNNLNDSEKQPYITKAAKLKEKYEKDVADYKSKGKFDGAKGPAKVARKKVEEEDEEEEEEEEEEEEEEDE
As to B2, in assay [5], the binding entry was “binds”.
